# Measurements from the supplement of paper PMC11438910.
# The list shows a part of the results. Most of these values are background signal.
# How the values were obtained:
# Assay in all cases: fluorescence intensity of antibody binding to polysaccharide-coupled beads; higher = stronger binding
# [1] = target: pneumococcal polysaccharide Pn35C
# Protocol: (§1)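 Recombinant rhesus-murine chimeric IgG1 antibodies were tested against antigen-coupled MagPlex beads in a 96-plex Luminex direct immunoassay (dLIA). The beads carried pneumococcal capsular polysaccharides of 93 serotypes plus C-polysaccharides. Antibody was added at 0.1–12,500 ng/mL for 1 h, then PE anti-mouse IgG, and net MFI was read on a Bio-Plex 3D. Only the rhesus variable regions are printed; constant regions are murine IgG1/kappa/lambda, and the signal peptide is MGWSCIILFLVATATGVHS.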
# [2] = target: pneumococcal polysaccharide Pn35F
# Protocol: as §1
# [3] = target: pneumococcal polysaccharide Pn36
# Protocol: as §1
# [4] = target: pneumococcal polysaccharide Pn37
# Protocol: as §1
# [5] = target: pneumococcal polysaccharide Pn38
# Protocol: as §1
# [6] = target: pneumococcal polysaccharide Pn39
# Protocol: as §1
# [7] = target: pneumococcal polysaccharide Pn4
# Protocol: as §1
# [8] = target: pneumococcal polysaccharide Pn40
# Protocol: as §1
# [9] = target: pneumococcal polysaccharide Pn41A
# Protocol: as §1
# [10] = target: pneumococcal polysaccharide Pn41F
# Protocol: as §1
# [11] = target: pneumococcal polysaccharide Pn42
# Protocol: as §1
# [12] = target: pneumococcal polysaccharide Pn43
# Protocol: as §1
# [13] = antibody concentration 2337.65 ng/mL
# [14] = antibody concentration 12500 ng/mL
# [15] = antibody concentration 0.1 ng/mL
# [16] = antibody concentration 0.534724 ng/mL
# [17] = antibody concentration 2.8593 ng/mL
# [18] = antibody concentration 15.2894 ng/mL
# [19] = antibody concentration 81.7561 ng/mL
# [20] = antibody concentration 437.17 ng/mL
binder,measurement,setting,value
4-99.4 (protein) chain 1: QVQLQESGPGLVKPSETLSLTCAVSGYSISSAYFWGWIRQPPGKGLEYIGYISGEGGKSYYNPSLMSRVTISKDTSKNQFSLKLNTVTAADTAVYYCARRAILVGFDLWGQGVLVTVSS chain 2: QAAPTQPPSVSGSPGQSVTISCTGSNSDIGYYNAVSWYQQHPGKAPKLMIYEVSKRPSGVSDRLTGSKSGNTASLTISGLQAEDEADYYCSSYAGSNTYIFGTGTRLTVL,fluorescence intensity,[1]; [13],22 MFI
same,fluorescence intensity,[1]; [14],24.5 MFI
same,fluorescence intensity,[2]; [15],22.8 MFI
same,fluorescence intensity,[2]; [16],21.5 MFI
same,fluorescence intensity,[2]; [17],20 MFI
same,fluorescence intensity,[2]; [18],20.8 MFI
same,fluorescence intensity,[2]; [19],19 MFI
same,fluorescence intensity,[2]; [20],21.8 MFI
same,fluorescence intensity,[2]; [13],21.8 MFI
same,fluorescence intensity,[2]; [14],22.5 MFI
same,fluorescence intensity,[3]; [15],15 MFI
same,fluorescence intensity,[3]; [16],16 MFI
same,fluorescence intensity,[3]; [17],16.5 MFI
same,fluorescence intensity,[3]; [18],15 MFI
same,fluorescence intensity,[3]; [19],16 MFI
same,fluorescence intensity,[3]; [20],17 MFI
same,fluorescence intensity,[3]; [13],18.2 MFI
same,fluorescence intensity,[3]; [14],53 MFI
same,fluorescence intensity,[4]; [15],26 MFI
same,fluorescence intensity,[4]; [16],26.8 MFI
same,fluorescence intensity,[4]; [17],27.2 MFI
same,fluorescence intensity,[4]; [18],26.5 MFI
same,fluorescence intensity,[4]; [19],27 MFI
same,fluorescence intensity,[4]; [20],28.5 MFI
same,fluorescence intensity,[4]; [13],37.5 MFI
same,fluorescence intensity,[4]; [14],206 MFI
same,fluorescence intensity,[5]; [15],26.5 MFI
same,fluorescence intensity,[5]; [16],26 MFI
same,fluorescence intensity,[5]; [17],26 MFI
same,fluorescence intensity,[5]; [18],25 MFI
same,fluorescence intensity,[5]; [19],26.5 MFI
same,fluorescence intensity,[5]; [20],26 MFI
same,fluorescence intensity,[5]; [13],29 MFI
same,fluorescence intensity,[5]; [14],36 MFI
same,fluorescence intensity,[6]; [15],18.5 MFI
same,fluorescence intensity,[6]; [16],19 MFI
same,fluorescence intensity,[6]; [17],19 MFI
same,fluorescence intensity,[6]; [18],19 MFI
same,fluorescence intensity,[6]; [19],17.5 MFI
same,fluorescence intensity,[6]; [20],18.5 MFI
same,fluorescence intensity,[6]; [13],20 MFI
same,fluorescence intensity,[6]; [14],40 MFI
same,fluorescence intensity,[7]; [15],19 MFI
same,fluorescence intensity,[7]; [16],19.5 MFI
same,fluorescence intensity,[7]; [17],19.5 MFI
same,fluorescence intensity,[7]; [18],19.5 MFI
same,fluorescence intensity,[7]; [19],19.2 MFI
same,fluorescence intensity,[7]; [20],22 MFI
same,fluorescence intensity,[7]; [13],25.2 MFI
same,fluorescence intensity,[7]; [14],43.8 MFI
same,fluorescence intensity,[8]; [15],17 MFI
same,fluorescence intensity,[8]; [16],15 MFI
same,fluorescence intensity,[8]; [17],16.5 MFI
same,fluorescence intensity,[8]; [18],17.5 MFI
same,fluorescence intensity,[8]; [19],16.8 MFI
same,fluorescence intensity,[8]; [20],19 MFI
same,fluorescence intensity,[8]; [13],19.5 MFI
same,fluorescence intensity,[8]; [14],66 MFI
same,fluorescence intensity,[9]; [15],23.5 MFI
same,fluorescence intensity,[9]; [16],24 MFI
same,fluorescence intensity,[9]; [17],23.5 MFI
same,fluorescence intensity,[9]; [18],24.5 MFI
same,fluorescence intensity,[9]; [19],24 MFI
same,fluorescence intensity,[9]; [20],24 MFI
same,fluorescence intensity,[9]; [13],25.5 MFI
same,fluorescence intensity,[9]; [14],30 MFI
same,fluorescence intensity,[10]; [15],12.5 MFI
same,fluorescence intensity,[10]; [16],13 MFI
same,fluorescence intensity,[10]; [17],13 MFI
same,fluorescence intensity,[10]; [18],14 MFI
same,fluorescence intensity,[10]; [19],13.5 MFI
same,fluorescence intensity,[10]; [20],13.5 MFI
same,fluorescence intensity,[10]; [13],15 MFI
same,fluorescence intensity,[10]; [14],21.5 MFI
same,fluorescence intensity,[11]; [15],10.5 MFI
same,fluorescence intensity,[11]; [16],12 MFI
same,fluorescence intensity,[11]; [17],11.5 MFI
same,fluorescence intensity,[11]; [18],12 MFI
same,fluorescence intensity,[11]; [19],12 MFI
same,fluorescence intensity,[11]; [20],13 MFI
same,fluorescence intensity,[11]; [13],13.5 MFI
same,fluorescence intensity,[11]; [14],29 MFI
same,fluorescence intensity,[12]; [15],16 MFI
same,fluorescence intensity,[12]; [16],16.8 MFI
same,fluorescence intensity,[12]; [17],16.5 MFI
same,fluorescence intensity,[12]; [18],16 MFI
same,fluorescence intensity,[12]; [19],15.5 MFI
same,fluorescence intensity,[12]; [20],18 MFI
same,fluorescence intensity,[12]; [13],23 MFI
same,fluorescence intensity,[12]; [14],104 MFI

# An excerpt of these results, with tabs.
binder	measurement	setting	value
4-99.4 (protein) chain 1: QVQLQESGPGLVKPSETLSLTCAVSGYSISSAYFWGWIRQPPGKGLEYIGYISGEGGKSYYNPSLMSRVTISKDTSKNQFSLKLNTVTAADTAVYYCARRAILVGFDLWGQGVLVTVSS chain 2: QAAPTQPPSVSGSPGQSVTISCTGSNSDIGYYNAVSWYQQHPGKAPKLMIYEVSKRPSGVSDRLTGSKSGNTASLTISGLQAEDEADYYCSSYAGSNTYIFGTGTRLTVL	fluorescence intensity	[3]; [18]	15 MFI
same	fluorescence intensity	[4]; [19]	27 MFI
same	fluorescence intensity	[12]; [13]	23 MFI
